Data taken from article PMC5730767.

The chains behind the UniProt entries cited, without tags or fusion partners.
UniProt Q92538: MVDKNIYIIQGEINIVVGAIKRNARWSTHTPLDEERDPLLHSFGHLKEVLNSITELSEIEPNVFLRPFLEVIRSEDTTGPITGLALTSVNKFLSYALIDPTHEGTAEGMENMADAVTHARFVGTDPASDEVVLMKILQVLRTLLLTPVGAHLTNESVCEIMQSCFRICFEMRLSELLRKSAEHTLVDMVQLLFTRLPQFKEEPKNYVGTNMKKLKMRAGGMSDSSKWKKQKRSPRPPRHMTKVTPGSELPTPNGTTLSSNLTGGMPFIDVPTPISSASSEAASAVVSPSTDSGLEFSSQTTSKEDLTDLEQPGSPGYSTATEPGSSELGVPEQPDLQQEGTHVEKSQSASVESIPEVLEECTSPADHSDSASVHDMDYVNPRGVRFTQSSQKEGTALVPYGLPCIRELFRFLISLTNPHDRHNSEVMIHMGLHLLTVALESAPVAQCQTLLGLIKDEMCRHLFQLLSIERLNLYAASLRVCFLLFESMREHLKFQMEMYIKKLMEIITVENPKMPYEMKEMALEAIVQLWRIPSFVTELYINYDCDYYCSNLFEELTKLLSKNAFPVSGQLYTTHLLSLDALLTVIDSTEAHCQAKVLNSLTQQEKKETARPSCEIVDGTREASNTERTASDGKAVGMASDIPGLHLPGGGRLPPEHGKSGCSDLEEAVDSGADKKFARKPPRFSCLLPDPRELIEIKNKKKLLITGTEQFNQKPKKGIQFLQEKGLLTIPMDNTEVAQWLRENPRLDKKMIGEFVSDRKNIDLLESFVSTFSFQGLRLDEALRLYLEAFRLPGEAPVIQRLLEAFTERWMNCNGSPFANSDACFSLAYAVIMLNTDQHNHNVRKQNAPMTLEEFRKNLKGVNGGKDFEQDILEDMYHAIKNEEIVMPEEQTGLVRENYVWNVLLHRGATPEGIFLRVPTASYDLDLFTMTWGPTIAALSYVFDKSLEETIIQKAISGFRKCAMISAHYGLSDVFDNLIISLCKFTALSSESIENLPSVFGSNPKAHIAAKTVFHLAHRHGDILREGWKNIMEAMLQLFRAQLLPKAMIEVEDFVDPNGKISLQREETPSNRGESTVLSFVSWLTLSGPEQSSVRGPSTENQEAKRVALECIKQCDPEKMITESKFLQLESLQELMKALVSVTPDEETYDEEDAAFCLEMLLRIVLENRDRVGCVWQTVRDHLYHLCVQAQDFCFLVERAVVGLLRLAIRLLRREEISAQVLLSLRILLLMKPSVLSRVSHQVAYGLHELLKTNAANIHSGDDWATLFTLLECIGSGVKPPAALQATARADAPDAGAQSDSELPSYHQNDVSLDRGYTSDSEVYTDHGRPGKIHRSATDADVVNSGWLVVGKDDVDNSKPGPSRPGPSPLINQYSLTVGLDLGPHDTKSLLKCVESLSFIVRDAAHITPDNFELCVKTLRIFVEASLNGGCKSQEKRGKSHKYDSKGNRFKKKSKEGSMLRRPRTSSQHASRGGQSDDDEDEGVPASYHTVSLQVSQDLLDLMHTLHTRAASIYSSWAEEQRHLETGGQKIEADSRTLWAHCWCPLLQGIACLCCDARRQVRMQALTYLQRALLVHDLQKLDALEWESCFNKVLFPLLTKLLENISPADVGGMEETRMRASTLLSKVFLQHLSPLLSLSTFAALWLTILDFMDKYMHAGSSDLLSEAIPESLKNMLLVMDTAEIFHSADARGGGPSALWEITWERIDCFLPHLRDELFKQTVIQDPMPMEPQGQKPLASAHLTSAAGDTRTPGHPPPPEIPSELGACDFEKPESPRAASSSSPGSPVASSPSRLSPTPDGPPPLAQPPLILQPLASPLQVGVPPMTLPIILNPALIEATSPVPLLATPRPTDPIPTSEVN

B1: ADP-ribosylation factor-like protein 1 (protein, UniProt P40616 1-181)
chain: MGGFFSSIFSSLFGTREMRILILGLDGAGKTTILYRLQVGEVVTTIPTIGFNVETVTYKNLKFQVWDLGGQTSIRPYWRCYYSNTDAVIYVVDSCDRDRIGISKSELVAMLEEEELRKAILVVFANKQDMEQAMTSSEMANSLGLPALKDRKWQIFKTSATKGTGLDEAMEWLVETLKSRQ
B2: RCN2 (ERC-55; ER Ca2+ binding protein, 55 kDa) (protein, UniProt Q14257 23-317)
chain: GKAEELHYPLGERRSDYDREALLGVQEDVDEYVKLGHEEQQKRLQAIIKKIDLDSDGFLTESELSSWIQMSFKHYAMQEAKQQFVEYDKNSDDTVTWDEYNIQMYDRVIDFDENTALDDAEEESFRKLHLKDKKRFEKANQDSGPGLSLEEFIAFEHPEEVDYMTEFVIQEALEEHDKNGDGFVSLEEFLGDYRWDPTANEDPEWILVEKDRFVNDYDKDNDGRLDPQELLPWVVPNNQGIAQEEALHLIDEMDLNGDKKLSEEEILENPDLFLTSEATDYGRQLHDDYFYHDEL

Columns and labels:
[1] = target: T1, N-terminal FLAG-tagged viperin (wild type) (human) (UniProt Q8WXG1); experiment: affinity purification with mass spectrometry
T1 sequence: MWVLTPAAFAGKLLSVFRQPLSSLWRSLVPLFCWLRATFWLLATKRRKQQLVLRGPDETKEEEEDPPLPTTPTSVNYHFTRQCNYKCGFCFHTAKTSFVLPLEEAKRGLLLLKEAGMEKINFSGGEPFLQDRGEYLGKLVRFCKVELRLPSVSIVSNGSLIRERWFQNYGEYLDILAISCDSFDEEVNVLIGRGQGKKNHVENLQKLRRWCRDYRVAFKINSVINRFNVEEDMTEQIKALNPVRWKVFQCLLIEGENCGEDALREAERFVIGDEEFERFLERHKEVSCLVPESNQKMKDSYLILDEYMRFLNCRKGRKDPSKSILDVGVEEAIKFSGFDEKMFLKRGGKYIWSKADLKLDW

[2] = target: T1, N-terminal FLAG-tagged viperin (wild type) (human); experiment: affinity purification with mass spectrom

Row | Molecule | binding [1] | binding [2]
1 | Golgi brefeldin A-resistant guanine nucleotide exchange factor 1 (GBF1), endogenous in 293 FLP-IN T-Rex cells (from UniProt Q92538 1-1860) | binds | –
2 | B1 | – | binds
3 | B2 | – | binds

Results are given in words; binding and its absence hold for the method and conditions named. In cells and extracts the contact can be indirect. These calls come from enrichment with a bait or labelling near it, and not all partners need be listed. Tags and fused reporters may be left off the sequences shown.
